Values of other authors in publication PMC6402191 (Clinical and Translational Science, 2017).

Conditions: cited from earlier work

For `NS(=O)(=O)c1cc(C(=O)O)c(NCc2ccco2)cc1Cl` [furosemide], the “increase of AUC by probenecid” value is listed as 2.6 fold.
